{"sequences": {"note": "Chains of the proteins cited; added tags and fusions are not shown. Lines headed by an entry give the natural chain unless they say otherwise; changes in a name come on top.", "UniProt P70460": "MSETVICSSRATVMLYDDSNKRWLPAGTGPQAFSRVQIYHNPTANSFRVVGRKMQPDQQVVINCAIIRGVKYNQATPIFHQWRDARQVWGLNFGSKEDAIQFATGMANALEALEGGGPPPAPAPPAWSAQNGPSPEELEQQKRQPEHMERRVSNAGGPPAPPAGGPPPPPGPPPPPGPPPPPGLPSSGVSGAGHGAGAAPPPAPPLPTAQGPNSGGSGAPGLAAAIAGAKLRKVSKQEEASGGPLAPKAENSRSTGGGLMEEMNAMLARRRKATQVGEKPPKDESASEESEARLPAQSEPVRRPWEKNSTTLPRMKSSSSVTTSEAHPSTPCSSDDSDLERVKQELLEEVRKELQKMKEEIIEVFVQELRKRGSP"}, "source": "paper doi:10.1101/529222", "binders": {"B1": {"name": "endogenous TRIM67 (protein, UniProt Q505D9 1-768)", "chain": "MEEELKCPVCGSLFREPIILPCSHNVCLPCARTIAVQTPDGEQHLPPPLLLSRGAAAAATPPDQDAAAGATSGGAGANTAGGLGGGATGGGDHADKLSLYSETDSGYGSYTPSLKSPNGVRVLPMVPAPPGSSAAAARGAACSSLCSSSSSITCPQCHRSASLDHRGLRGFQRNRLLEGIVQRYQQGRGVVPGAAAAPAVAICQLCDRTPPEPAATLCEQCDVLYCATCQLKCHPSRGPFAKHRLVQPPPPPTPPEATPAVTGTSTASSAGGCRSPGGAGASAPRKFPTCPEHEMENYSMYCVSCRSPVCYMCLEEGRHSKHEVKPLGATWKQHKAQLSQALNGVSDKAKEAKEFLVQLKNILQQIQENGLDYEACLVAQCDALVDALTRQKAKLLTKVTKEREHKLKMVWDQINHCTLKLRQSTGLMEYCLEVIKEDDPSGFLQISDALIKRVQTSQEQWVKGALEPKVSAEFDLTLDSEPLLQAIHQLDFVQMKLPPVPLLQLEKCCTRNNSVTLAWRTPPFTHSPAEGYILELDDGDGGQFREVYVGKETLCTIDGLHFNSTYNARVKAFNSSGVGPYSKTVVLQTSDVAWFTFDPNSGHRDIILSNDNQTATCSSYDDRVVLGTAAFSKGVHYWELHVDRYDNHPDPAFGVARASVVKDMMLGKDDKAWAMYVDNNRSWFMHCNSHTNRTEGGVCKGATVGVLLDLNKHTLTFFINGQQQGPTAFSHVDGVFMPALSLNRNVQVTLHTGLEVPTNLGRPKLSGN"}}, "biological_target": "GST-EVH1 domain of VASP (UniProt P70460)", "experiment": "pull-down", "note": "Results are given in words; binding and its absence hold for the method and conditions named. Binding seen in cells or lysates may run through a third protein. Binding calls can cover weak binding; strength is not graded here.", "data": [{"binder": "B1", "values": [{"measurement": "binding", "result": "binds"}]}]}
